Measured values published in the M2OR odorant receptor database.
Positions count from the first letter of the chain named. This is a selection; strong and weak results do not stand in their true shares. Calls are pooled over several reports, among them a noisy single-well screen. This is one part of the list.

Chains of the proteins cited; added tags and fusions are not shown. A change or cut given only in a name is not applied to a line headed by its entry. A line that says so, or that is headed by a name, gives the form on record, which may keep a tag or linker.
UniProt Q8N628: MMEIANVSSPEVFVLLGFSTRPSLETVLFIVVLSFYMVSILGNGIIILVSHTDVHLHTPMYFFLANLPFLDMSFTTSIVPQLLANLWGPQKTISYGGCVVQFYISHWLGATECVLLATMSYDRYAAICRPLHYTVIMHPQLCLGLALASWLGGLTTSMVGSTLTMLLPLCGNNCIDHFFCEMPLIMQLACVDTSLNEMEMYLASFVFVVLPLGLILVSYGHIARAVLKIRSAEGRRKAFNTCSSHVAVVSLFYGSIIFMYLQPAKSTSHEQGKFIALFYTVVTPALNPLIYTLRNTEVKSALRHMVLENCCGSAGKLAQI
OR2C1, as listed by the source: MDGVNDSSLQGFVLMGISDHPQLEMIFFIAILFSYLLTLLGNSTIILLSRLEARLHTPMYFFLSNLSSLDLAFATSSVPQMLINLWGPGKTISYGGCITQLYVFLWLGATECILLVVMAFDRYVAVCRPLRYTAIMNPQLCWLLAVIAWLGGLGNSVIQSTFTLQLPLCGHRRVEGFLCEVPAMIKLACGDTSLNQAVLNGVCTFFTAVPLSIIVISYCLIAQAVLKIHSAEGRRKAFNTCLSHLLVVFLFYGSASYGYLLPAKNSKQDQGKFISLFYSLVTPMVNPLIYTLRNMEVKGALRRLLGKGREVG

How the values were obtained:
Settings in all cases: stereoisomer not certain
OR2B6 (Homo sapiens) = target: T1, OR2B6 (Homo sapiens) (UniProt P58173)
T1 sequence (whole entry): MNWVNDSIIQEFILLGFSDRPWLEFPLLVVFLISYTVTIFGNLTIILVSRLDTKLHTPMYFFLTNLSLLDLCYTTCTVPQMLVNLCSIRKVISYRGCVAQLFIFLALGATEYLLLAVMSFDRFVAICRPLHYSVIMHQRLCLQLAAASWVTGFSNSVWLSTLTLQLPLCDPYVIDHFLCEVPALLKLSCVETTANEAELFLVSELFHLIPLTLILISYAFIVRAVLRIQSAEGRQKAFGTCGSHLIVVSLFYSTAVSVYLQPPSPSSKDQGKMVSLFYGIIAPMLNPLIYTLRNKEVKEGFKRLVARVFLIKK
Procedure, shortened: (§1)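 Assay methods differ from source to source, frequently being transient luciferase assays in mammalian cell lines. For each receptor–molecule pair, the label responsive (active) applies when the original authors judged the measured signal statistically different from baseline, and non-responsive (inactive) applies otherwise.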

OR2B8 = tested on: T2, OR2B8
T2 sequence (whole entry): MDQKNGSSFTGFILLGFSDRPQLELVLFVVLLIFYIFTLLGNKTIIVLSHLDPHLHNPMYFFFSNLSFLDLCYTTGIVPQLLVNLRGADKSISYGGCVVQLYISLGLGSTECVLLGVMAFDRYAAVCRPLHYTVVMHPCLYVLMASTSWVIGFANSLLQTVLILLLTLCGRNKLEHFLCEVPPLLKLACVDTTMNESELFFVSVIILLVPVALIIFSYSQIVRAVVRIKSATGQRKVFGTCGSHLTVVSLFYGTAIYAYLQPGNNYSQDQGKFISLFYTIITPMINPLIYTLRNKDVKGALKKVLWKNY
Procedure, shortened: as §1

OR2C1 (Homo sapiens) = target: T3, OR2C1 (Homo sapiens) (UniProt O95371)
T3 sequence (whole entry): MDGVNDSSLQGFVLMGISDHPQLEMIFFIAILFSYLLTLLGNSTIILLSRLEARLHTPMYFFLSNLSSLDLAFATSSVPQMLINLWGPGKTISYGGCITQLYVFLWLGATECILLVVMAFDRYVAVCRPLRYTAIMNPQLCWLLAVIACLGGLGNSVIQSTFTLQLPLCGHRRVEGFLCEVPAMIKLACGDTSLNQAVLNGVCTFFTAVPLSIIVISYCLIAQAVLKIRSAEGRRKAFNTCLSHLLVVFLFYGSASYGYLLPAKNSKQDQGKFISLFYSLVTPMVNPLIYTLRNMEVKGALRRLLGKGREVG
Procedure, shortened: as §1

OR2C1 [1] = tested on: T4, OR2C1
T4 sequence (whole entry): T3 sequence (whole entry) with C149W, R229H
Procedure, shortened: as §1

OR2C1 [2] = tested on: T5, OR2C1; remark: listed apart in the source
T5 sequence (whole entry): T3 sequence (whole entry) with C149W
Procedure, shortened: as §1

OR2C1 [3] = tested on: T6, OR2C1; remark: listed apart in the source
T6 sequence (whole entry): T3 sequence (whole entry) with P58S, C149W
Procedure, shortened: as §1

OR2C1 [4] = tested on: T7, OR2C1; remark: listed apart in the source
T7 sequence (whole entry): T3 sequence (whole entry) with G16S, C149W, R229H
Procedure, shortened: as §1

OR2C1 [5] = tested on: T8, OR2C1; remark: listed apart in the source
T8 sequence (whole entry): T3 sequence (whole entry) with G16S, C149W
Procedure, shortened: as §1

OR2C3 (Homo sapiens) = OR2C3 (Homo sapiens) (UniProt Q8N628)
Procedure, shortened: as §1

OR2C1 [6] = tested on: OR2C1; remark: listed apart in the source
Procedure, shortened: as §1

Measured: odorant receptor agonist call

CC12CCC(C1)C(C)(C)C2=O (configuration not stated)
not listed: OR2C3 (Homo sapiens) | OR2C1 [6]
inactive: all other assays above

CC(=O)C(C)=O
not listed: OR2C1 (Homo sapiens) | OR2C3 (Homo sapiens) | OR2C1 [6]
inactive: all other assays above

CC=Cc1ccc(O)c(OC)c1
inactive: OR2B6 (Homo sapiens) | OR2B8 | OR2C1 [1] | OR2C1 [2]
active: OR2C1 [3] | OR2C1 [4] | OR2C1 [5]

CC(=O)OC(C)(C)C1CC=C(C)CC1 (configuration not stated)
not listed: OR2C1 (Homo sapiens) | OR2C3 (Homo sapiens) | OR2C1 [6]
inactive: all other assays above

CCCCCCCCC=O
inactive: OR2C1 (Homo sapiens)

CCCCCOC(C)=O
not listed: OR2C1 (Homo sapiens) | OR2C3 (Homo sapiens) | OR2C1 [6]
inactive: all other assays above

CC1=NC(C)SC1C (configuration not stated)
not listed: OR2C1 (Homo sapiens) | OR2C3 (Homo sapiens) | OR2C1 [6]
inactive: all other assays above

CCCC(=O)O
not listed: OR2C1 (Homo sapiens) | OR2C3 (Homo sapiens) | OR2C1 [6]
inactive: all other assays above

CC12C=CCC1C1CCC3CC(=O)CCC3(C)C1CC2 (configuration not stated)
active: OR2C1 [3]
not listed: OR2C1 (Homo sapiens) | OR2C1 [6]
inactive: all other assays above

CCCCCCC=O
inactive: OR2C1 (Homo sapiens)

CC12C=CCC1C1CCC3=CC(=O)CCC3(C)C1CC2 (configuration not stated)
not listed: OR2C1 (Homo sapiens) | OR2C3 (Homo sapiens) | OR2C1 [6]
inactive: all other assays above

CC(C)C=O
not listed: OR2C1 (Homo sapiens) | OR2C3 (Homo sapiens) | OR2C1 [6]
inactive: all other assays above

C=C(C)C1CC=C(C)C(=O)C1 (configuration not stated)
inactive: OR2C1 (Homo sapiens)

CCCCCCCCOC(C)=O
not listed: OR2C1 (Homo sapiens) | OR2C3 (Homo sapiens) | OR2C1 [6]
inactive: all other assays above

CCC=CCCO
not listed: OR2C1 (Homo sapiens) | OR2C3 (Homo sapiens) | OR2C1 [6]
inactive: all other assays above

CC1=CCC(C(C)(C)O)CC1 (configuration not stated)
not listed: OR2C1 (Homo sapiens) | OR2C3 (Homo sapiens) | OR2C1 [6]
inactive: all other assays above

O=CCc1ccccc1
active: OR2C1 [2] | OR2C1 [6]
not listed: OR2C1 (Homo sapiens) | OR2C3 (Homo sapiens)
inactive: all other assays above

CC(C)CC(=O)O
not listed: OR2C1 (Homo sapiens) | OR2C3 (Homo sapiens) | OR2C1 [6]
inactive: all other assays above

COC(=O)c1ccccc1
active: OR2B8
not listed: OR2C1 (Homo sapiens) | OR2C3 (Homo sapiens) | OR2C1 [6]
inactive: all other assays above

COc1cc(C=O)ccc1O
not listed: OR2C1 (Homo sapiens) | OR2C3 (Homo sapiens) | OR2C1 [6]
inactive: all other assays above

CC(C)=CCCC(C)=CC=O
not listed: OR2C1 (Homo sapiens) | OR2C3 (Homo sapiens) | OR2C1 [6]
inactive: all other assays above

c1ccc(Oc2ccccc2)cc1
not listed: OR2C1 (Homo sapiens) | OR2C3 (Homo sapiens) | OR2C1 [6]
inactive: all other assays above

c1cnccn1
not listed: OR2C1 (Homo sapiens) | OR2C3 (Homo sapiens) | OR2C1 [6]
inactive: all other assays above

CC(C)(O)CCCC1=CCC(C=O)CC1 (configuration not stated)
inactive: OR2C1 (Homo sapiens)

COc1ccccc1O
not listed: OR2C1 (Homo sapiens) | OR2C3 (Homo sapiens) | OR2C1 [6]
inactive: all other assays above

O=C1CCCCCCCCCCCCCCO1
not listed: OR2C1 (Homo sapiens) | OR2C3 (Homo sapiens) | OR2C1 [6]
inactive: all other assays above

COC(=O)c1ccccc1O
not listed: OR2C1 (Homo sapiens) | OR2C3 (Homo sapiens) | OR2C1 [6]
inactive: all other assays above

CCCCCCOC(=O)CCC
not listed: OR2C1 (Homo sapiens) | OR2C3 (Homo sapiens) | OR2C1 [6]
inactive: all other assays above

C=CC(C)(O)CCC=C(C)C (configuration not stated)
not listed: OR2C1 (Homo sapiens) | OR2C3 (Homo sapiens) | OR2C1 [6]
inactive: all other assays above
